# Measurements reported in PubChem BioAssay AID1508648 (National Center for Advancing Translational Sciences (NCATS), 2021).
# Inconclusive results, whose numbers are uncertain, are shown with a selection of clear calls. Where the call is inconclusive, the potency comes from a doubtful curve fit. Active and inactive are the calls of the source. Calls come from the whole dose curve; as a rule, active = well fitted cell-killing curve with a large enough effect; inconclusive = small, poorly fitted or top-dose-only effect, or effect the other way; inactive = flat fitted curve, though single readings scatter.
# Assay: Cell viability assay in S16 Pmp22-HiBiT cells - Confirmatory screen
# Conditions: S16 Schwann Pmp22-HiBiT viability, CellTiter-Glo, 24 h; series mostly up to 27.9 µM
# Text: Assay Provider: Jim Inglese Ph.D. National Center for Advancing Translational Science, National Institutes of Health, Rockville, MD CMT is a heterogeneous group of neurological disorders that affect approximately 1 in 2,500 people. In particular, the most common form of CMT, CMT1A is genetically linked to the duplication of the PMP22 gene which leads to Schwann cell overexpression, thus manifesting itself as a typical case of dose-sensitive diseases. To identify small molecule compounds that can mediate the expression of PMP22 we developed a phenotypic assay screening strategy by utilizing genome editing techniques to construct Schwann cell lines containing novel reporter technology to monitor the transcriptional or translational regulation of PMP22. For high sensitivity we use a bioluminescent reporter system embedded in the 3' UTR of the PMP22 gene (S16(c9) Pmp22-F2sN) to identify compounds that inhibit gene expression. […] We can further discriminate the effect of all transcriptionally active molecules on PMP22 translation or stability with an assay that incorporates a short NLuc peptide (HiBiT) at the C-terminus of expressed PMP22 (S16(f8) PMP22-HiBiT) allowing alpha complementation and luminescence detection of membrane-associated PMP22 protein. These assays were screened against the NCATS Sytravon Library Collection. Miniaturization of these assays to 1536-well plate format for quantitative high throughput screening (qHTS) yielded rich data sets immediately from the qHTS assay (S16(c9) Pmp22-F2sN), when compared with data from a cell viability assay (Cell TiterGlo) to identify compounds that decreased the output signals through cellular toxicity to streamline the selection process of actives for subsequent characterization using the HiBiT assay (S16(f8) PMP22-HiBiT).
# Cell viability assay in S16 Pmp22-HiBiT cells PROTOCOL TABLE (format as described by Inglese J, Shamu CE and Guy RK. 2007) SEQUENCE No. (e.g., 1, 2, 3, etc.); PARAMETER (e.g., Cells, Incubation, Reagent, etc.); VALUE and DESCRIPTION. 1. Cells. Add 500-1,000 cells in 4 uL in growth media (DMEM High Glucose, No Phenol Red media + 10% heat-inactivated FBS + 1% Pen/Strep supplemented media) per well into Greiner 1536-well white/solid bottom high base, TC-treated plates. 2. Compounds. Library compounds and controls added at 23nL per well, transferred by Pin Tool. 3. Incubation. Incubate plates at 37C, 5% CO2, 95% RH for 24 h. 4. Reagent. Add 3uL CellTiter-Glo per well of Greiner 1536-well plates. 5. Incubation. Incubate plates at room temperature for 15 min., protect from light. 6. Detector. Luminescence measured using CCD-based camera (Viewlux). NOTES (numbers refer to Sequence numbers above; values are from representative experiments) 6. Luminescence Read: Clear filter; Exposure = 1 sec, Gain = High, Speed = Slow, Binning = 2X REFERENCES: 1. Inglese J, Shamu CE and Guy RK, Reporting data from high throughput screening of small molecule libraries, Nature Chemical Biology, 2007, 3(8): 438-441. doi.org/10.1038/nchembio0807-438 2. Yasgar A, Shinn P, Jadhav A, Auld DS, Michael S, Zheng W, Austin CP, Inglese J and Simeonov A, Compound Management for Quantitative High-Throughput Screening. J. Assoc. Lab. Auto., 2008, 13: 79-89. doi: 10.1016/j.jala.2007.12.004
row,Compound,Potency
1,Cc1ccc(OCC(=O)Nc2ccc3nc(SCC(=O)N4CCc5ccccc54)sc3c2)cc1,inactive
2,COc1ccccc1-c1cc(C(F)(F)F)nc(S(=O)(=O)CCCC(=O)Nc2ccccc2F)n1,"inconclusive: 6.45 µM [cytotoxic, partial curve, poor fit]"
3,CCN(CC)CCNC(=O)c1cc(-c2ccc(Br)s2)nc2ccccc12,active: 10.2 µM
4,COc1ccc(NC(=O)CCS(=O)(=O)c2nc(-c3cccs3)cc(C(F)(F)F)n2)cc1,inactive
5,COc1ccc(N(CC(=O)Nc2cc(Cl)ccc2C)S(=O)(=O)c2c(C)noc2C)cc1,"inconclusive: 3.24 µM [cytotoxic, full curve, poor fit]"
6,COc1ccc(Br)c2c1-c1nc(NC(=O)c3cccc(C)c3)sc1C2,inactive
7,CCc1ccccc1Nc1nn2c(=O)c3ccc(C(=O)Nc4cc(C)cc(C)c4)cc3nc2s1,"inconclusive: 5.75 µM [cytotoxic, single point]"
8,COCCCNC(=O)c1ccc2c(c1)N=C(C)c1c(C)ccc(C)c1S2,"inconclusive: 0.0407 µM [rising, full curve]"
9,COc1ccc(C)cc1NS(=O)(=O)c1ccc(-c2cnc(C3CC3)o2)cc1,"inconclusive: 0.912 µM [rising, full curve]"

# Compounds 3 to 4 of the list above:
row,Compound,Potency
3,CCN(CC)CCNC(=O)c1cc(-c2ccc(Br)s2)nc2ccccc12,active: 10.2 µM
4,COc1ccc(NC(=O)CCS(=O)(=O)c2nc(-c3cccs3)cc(C(F)(F)F)n2)cc1,inactive
